The values below come from paper PMC6362308.

By UniProt entry, the sequences of proteins in these tests, tags left out.
UniProt Q14974: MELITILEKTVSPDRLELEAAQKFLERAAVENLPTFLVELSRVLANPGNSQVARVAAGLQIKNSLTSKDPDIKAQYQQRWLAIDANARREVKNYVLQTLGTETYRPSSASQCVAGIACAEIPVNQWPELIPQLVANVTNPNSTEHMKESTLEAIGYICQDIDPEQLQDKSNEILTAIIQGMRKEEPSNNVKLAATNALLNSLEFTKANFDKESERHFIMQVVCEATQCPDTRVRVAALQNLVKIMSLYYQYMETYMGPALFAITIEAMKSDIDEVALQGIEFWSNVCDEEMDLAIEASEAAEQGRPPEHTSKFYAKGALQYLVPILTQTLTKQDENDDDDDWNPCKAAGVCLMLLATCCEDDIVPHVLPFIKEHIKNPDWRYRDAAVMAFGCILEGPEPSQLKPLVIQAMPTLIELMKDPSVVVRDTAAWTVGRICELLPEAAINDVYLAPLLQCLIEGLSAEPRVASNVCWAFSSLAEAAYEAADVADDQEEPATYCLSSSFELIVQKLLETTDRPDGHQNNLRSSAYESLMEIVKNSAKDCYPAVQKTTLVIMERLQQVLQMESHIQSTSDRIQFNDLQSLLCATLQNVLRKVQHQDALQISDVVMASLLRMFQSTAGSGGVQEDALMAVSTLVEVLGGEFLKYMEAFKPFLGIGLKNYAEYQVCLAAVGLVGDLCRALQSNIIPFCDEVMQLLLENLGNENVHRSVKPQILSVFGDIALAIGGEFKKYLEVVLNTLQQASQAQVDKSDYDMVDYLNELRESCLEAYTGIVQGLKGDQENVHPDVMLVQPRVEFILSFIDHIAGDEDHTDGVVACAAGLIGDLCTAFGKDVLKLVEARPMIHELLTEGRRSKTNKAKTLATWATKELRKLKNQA

Results are given in words; binding and its absence hold for the method and conditions named. Binding seen in cells or lysates may run through a third protein. Some entries that bind do so weakly or less than the wild type.

This assay concerns the target importin β (bait of the NLS-MAP purification) (UniProt Q14974). The experiment in a line: pull-down; data not shown: sequential purification of microtubule-binding and importin-β-binding proteins (Yokoyama et al, 2013).

B1: RECQL4 identified in the sequential purification of microtubule- and importin-β-binding proteins (protein, UniProt O94761 1-1208)
chain: MERLRDVRERLQAWERAFRRQRGRRPSQDDVEAAPEETRALYREYRTLKRTTGQAGGGLRSSESLPAAAEEAPEPRCWGPHLNRAATKSPQSTPGRSRQGSVPDYGQRLKANLKGTLQAGPALGRRPWPLGRASSKASTPKPPGTGPVPSFAEKVSDEPPQLPEPQPRPGRLQHLQASLSQRLGSLDPGWLQRCHSEVPDFLGAPKACRPDLGSEESQLLIPGESAVLGPGAGSQGPEASAFQEVSIRVGSPQPSSSGGEKRRWNEEPWESPAQVQQESSQAGPPSEGAGAVAVEEDPPGEPVQAQPPQPCSSPSNPRYHGLSPSSQARAGKAEGTAPLHIFPRLARHDRGNYVRLNMKQKHYVRGRALRSRLLRKQAWKQKWRKKGECFGGGGATVTTKESCFLNEQFDHWAAQCPRPASEEDTDAVGPEPLVPSPQPVPEVPSLDPTVLPLYSLGPSGQLAETPAEVFQALEQLGHQAFRPGQERAVMRILSGISTLLVLPTGAGKSLCYQLPALLYSRRSPCLTLVVSPLLSLMDDQVSGLPPCLKAACIHSGMTRKQRESVLQKIRAAQVHVLMLTPEALVGAGGLPPAAQLPPVAFACIDEAHCLSQWSHNFRPCYLRVCKVLRERMGVHCFLGLTATATRRTASDVAQHLAVAEEPDLHGPAPVPTNLHLSVSMDRDTDQALLTLLQGKRFQNLDSIIIYCNRREDTERIAALLRTCLHAAWVPGSGGRAPKTTAEAYHAGMCSRERRRVQRAFMQGQLRVVVATVAFGMGLDRPDVRAVLHLGLPPSFESYVQAVGRAGRDGQPAHCHLFLQPQGEDLRELRRHVHADSTDFLAVKRLVQRVFPACTCTCTRPPSEQEGAVGGERPVPKYPPQEAEQLSHQAAPGPRRVCMGHERALPIQLTVQALDMPEEAIETLLCYLELHPHHWLELLATTYTHCRLNCPGGPAQLQALAHRCPPLAVCLAQQLPEDPGQGSSSVEFDMVKLVDSMGWELASVRRALCQLQWDHEPRTGVRRGTGVLVEFSELAFHLRSPGDLTAEEKDQICDFLYGRVQARERQALARLRRTFQAFHSVAFPSCGPCLEQQDEERSTRLKDLLGRYFEEEEGQEPGGMEDAQGPEPGQARLQDWEDQVRCDIRQFLSLRPEEKFSSRAVARIFHGIGSPCYPAQVYGQDRRFWRKYLHLSFHALVGLATEELLQVAR
Regarding B1, the binding entry was “binds”.
